No constants are given. Whether binding was seen depends on the method and setting. Some binding calls cover weakened binding; strength is not graded here.
Legend:
[1] = target: SlMADS-RIN (tomato) (UniProt Q8S4L4); assay: two-hybrid; … GAL4 Two-Hybrid System III (Clontech); prey pGADT7-SlCMB1 in Y187 mated with baits in pGBKT7 in Y2HGold; diploids selected on DDO, then growth on QDO and blue colour on QDO/X (X-a-Gal); 30 °C, 3-5 d
[2] = target: SlMADS1 (tomato) (UniProt Q7Y040); assay: as above

Sequences of proteins named here, by UniProt entry; tags and fusion partners are left off. A change or cut given only in a name is not applied to a line headed by its entry. A line that says so, or that is headed by a name, gives the form on record, which may keep a tag or linker.
SlMADS-RIN (Q8S4L4, form named): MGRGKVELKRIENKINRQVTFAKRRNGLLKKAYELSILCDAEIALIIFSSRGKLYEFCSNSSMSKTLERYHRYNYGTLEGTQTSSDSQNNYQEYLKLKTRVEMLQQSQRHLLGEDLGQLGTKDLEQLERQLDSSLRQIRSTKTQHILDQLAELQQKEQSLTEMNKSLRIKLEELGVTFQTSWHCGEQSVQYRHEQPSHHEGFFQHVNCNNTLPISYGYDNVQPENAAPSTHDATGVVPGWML
UniProt Q7Y040: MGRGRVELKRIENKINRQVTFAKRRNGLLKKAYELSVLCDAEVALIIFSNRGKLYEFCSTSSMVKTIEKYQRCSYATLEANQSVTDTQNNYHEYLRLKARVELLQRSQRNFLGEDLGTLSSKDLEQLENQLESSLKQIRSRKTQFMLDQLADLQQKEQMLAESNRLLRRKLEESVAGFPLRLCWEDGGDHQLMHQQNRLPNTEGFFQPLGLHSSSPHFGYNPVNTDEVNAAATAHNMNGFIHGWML
UniProt K4BND8: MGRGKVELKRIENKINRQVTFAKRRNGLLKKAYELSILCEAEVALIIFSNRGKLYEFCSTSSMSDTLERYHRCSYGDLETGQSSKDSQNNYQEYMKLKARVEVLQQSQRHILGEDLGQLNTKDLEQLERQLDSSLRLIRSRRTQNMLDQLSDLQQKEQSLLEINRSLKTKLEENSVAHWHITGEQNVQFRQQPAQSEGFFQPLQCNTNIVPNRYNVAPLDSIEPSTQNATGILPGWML

binding [1]: binds | binding [2]: binds
Substance: SlCMB1 (from UniProt K4BND8 1-238)

From publication PMC5821886
